Assay results taken from the supplement of paper PMC10849652.
This is one part of the list.

The chains behind the UniProt entries cited, without tags or fusion partners. Where a name states a change or a piece, a line headed by the entry shows the natural chain unless it says otherwise.
UniProt Q5I7T1: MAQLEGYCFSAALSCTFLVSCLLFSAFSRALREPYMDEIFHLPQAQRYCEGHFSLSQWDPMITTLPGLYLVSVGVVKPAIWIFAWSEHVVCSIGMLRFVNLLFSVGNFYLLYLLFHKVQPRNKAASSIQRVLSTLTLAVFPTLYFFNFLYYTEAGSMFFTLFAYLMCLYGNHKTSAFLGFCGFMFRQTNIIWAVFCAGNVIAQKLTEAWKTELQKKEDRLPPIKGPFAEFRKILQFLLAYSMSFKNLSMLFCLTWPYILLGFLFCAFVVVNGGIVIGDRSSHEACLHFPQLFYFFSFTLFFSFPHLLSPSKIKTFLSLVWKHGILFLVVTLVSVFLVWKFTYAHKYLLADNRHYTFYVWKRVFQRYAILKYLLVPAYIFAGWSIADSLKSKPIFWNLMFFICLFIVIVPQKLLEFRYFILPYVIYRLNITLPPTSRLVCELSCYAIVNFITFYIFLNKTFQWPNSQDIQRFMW
UniProt Q3LIE5: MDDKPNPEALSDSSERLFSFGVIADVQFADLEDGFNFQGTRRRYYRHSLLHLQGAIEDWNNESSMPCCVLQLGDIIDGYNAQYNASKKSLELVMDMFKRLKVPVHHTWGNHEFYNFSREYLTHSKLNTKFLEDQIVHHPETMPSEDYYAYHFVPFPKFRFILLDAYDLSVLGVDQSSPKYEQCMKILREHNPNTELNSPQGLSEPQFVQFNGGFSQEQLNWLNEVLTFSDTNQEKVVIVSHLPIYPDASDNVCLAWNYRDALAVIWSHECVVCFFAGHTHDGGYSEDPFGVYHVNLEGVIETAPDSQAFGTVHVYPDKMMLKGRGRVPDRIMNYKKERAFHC
UniProt P42330: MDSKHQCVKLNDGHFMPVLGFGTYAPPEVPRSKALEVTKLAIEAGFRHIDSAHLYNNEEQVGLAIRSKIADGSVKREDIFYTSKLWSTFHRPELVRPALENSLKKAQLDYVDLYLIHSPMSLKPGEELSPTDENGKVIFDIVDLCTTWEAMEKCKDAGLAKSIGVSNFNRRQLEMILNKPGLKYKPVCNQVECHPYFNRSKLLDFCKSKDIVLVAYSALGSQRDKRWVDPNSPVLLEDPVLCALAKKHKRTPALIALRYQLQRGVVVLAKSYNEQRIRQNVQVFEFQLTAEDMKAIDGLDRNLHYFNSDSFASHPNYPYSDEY
UniProt P13196: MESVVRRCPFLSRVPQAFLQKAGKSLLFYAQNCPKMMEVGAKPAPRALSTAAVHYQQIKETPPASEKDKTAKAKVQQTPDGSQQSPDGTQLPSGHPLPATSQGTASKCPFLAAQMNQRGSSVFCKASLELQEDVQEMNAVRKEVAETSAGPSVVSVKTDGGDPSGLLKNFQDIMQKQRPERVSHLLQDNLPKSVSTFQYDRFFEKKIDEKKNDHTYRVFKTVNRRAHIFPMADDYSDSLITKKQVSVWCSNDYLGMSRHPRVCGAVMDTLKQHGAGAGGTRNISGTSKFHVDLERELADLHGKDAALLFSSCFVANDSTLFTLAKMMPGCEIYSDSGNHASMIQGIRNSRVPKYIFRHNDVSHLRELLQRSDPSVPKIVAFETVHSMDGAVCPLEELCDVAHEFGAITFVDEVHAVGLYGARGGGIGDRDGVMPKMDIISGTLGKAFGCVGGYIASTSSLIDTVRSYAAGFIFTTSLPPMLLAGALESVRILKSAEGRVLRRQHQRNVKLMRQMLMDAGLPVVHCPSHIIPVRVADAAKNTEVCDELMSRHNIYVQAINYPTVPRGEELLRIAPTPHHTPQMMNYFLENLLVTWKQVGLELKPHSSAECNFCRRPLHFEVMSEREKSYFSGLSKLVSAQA
UniProt Q9NYG5, whole entry, looked up: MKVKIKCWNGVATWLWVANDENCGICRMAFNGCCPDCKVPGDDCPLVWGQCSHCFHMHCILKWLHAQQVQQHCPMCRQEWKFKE
UniProt P51825: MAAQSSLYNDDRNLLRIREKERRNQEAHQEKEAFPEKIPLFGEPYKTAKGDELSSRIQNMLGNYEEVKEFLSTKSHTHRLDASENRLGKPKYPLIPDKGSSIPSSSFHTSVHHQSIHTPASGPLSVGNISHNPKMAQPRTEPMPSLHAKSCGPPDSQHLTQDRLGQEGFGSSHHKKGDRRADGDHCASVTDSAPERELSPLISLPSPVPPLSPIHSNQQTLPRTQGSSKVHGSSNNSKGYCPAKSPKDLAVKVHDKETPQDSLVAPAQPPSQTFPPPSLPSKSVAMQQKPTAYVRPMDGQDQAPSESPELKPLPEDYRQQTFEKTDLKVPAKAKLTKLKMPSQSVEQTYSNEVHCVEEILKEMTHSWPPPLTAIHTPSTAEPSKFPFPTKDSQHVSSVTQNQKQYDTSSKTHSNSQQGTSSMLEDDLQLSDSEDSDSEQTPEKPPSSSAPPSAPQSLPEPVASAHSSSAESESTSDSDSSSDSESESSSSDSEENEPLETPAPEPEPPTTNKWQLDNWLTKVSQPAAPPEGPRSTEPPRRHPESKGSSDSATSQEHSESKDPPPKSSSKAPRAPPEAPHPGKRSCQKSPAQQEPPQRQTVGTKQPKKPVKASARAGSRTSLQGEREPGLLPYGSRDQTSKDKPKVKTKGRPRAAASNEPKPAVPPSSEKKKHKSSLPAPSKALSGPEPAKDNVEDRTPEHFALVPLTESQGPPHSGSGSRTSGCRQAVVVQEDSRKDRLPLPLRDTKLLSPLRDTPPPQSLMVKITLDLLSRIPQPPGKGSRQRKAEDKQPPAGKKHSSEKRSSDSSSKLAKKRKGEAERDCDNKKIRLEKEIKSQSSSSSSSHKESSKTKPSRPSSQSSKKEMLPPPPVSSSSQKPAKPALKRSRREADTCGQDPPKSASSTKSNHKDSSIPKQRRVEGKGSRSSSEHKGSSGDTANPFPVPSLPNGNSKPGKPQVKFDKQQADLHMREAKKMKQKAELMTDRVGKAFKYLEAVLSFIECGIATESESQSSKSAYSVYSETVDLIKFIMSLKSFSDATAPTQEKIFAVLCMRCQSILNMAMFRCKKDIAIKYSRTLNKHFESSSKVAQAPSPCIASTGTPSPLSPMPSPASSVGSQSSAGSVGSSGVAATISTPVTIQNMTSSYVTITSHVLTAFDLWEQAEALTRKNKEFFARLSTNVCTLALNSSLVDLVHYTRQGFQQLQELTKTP
UniProt P02760: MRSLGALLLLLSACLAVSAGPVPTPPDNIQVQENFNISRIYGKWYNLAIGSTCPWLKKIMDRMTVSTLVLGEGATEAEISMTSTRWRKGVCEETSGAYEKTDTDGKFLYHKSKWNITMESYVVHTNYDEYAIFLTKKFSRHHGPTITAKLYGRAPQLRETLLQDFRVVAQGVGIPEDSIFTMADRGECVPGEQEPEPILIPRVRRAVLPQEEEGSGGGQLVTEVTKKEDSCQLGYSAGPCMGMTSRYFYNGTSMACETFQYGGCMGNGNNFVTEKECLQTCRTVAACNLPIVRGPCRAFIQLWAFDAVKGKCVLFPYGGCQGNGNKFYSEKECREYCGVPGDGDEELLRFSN
UniProt Q96Q42: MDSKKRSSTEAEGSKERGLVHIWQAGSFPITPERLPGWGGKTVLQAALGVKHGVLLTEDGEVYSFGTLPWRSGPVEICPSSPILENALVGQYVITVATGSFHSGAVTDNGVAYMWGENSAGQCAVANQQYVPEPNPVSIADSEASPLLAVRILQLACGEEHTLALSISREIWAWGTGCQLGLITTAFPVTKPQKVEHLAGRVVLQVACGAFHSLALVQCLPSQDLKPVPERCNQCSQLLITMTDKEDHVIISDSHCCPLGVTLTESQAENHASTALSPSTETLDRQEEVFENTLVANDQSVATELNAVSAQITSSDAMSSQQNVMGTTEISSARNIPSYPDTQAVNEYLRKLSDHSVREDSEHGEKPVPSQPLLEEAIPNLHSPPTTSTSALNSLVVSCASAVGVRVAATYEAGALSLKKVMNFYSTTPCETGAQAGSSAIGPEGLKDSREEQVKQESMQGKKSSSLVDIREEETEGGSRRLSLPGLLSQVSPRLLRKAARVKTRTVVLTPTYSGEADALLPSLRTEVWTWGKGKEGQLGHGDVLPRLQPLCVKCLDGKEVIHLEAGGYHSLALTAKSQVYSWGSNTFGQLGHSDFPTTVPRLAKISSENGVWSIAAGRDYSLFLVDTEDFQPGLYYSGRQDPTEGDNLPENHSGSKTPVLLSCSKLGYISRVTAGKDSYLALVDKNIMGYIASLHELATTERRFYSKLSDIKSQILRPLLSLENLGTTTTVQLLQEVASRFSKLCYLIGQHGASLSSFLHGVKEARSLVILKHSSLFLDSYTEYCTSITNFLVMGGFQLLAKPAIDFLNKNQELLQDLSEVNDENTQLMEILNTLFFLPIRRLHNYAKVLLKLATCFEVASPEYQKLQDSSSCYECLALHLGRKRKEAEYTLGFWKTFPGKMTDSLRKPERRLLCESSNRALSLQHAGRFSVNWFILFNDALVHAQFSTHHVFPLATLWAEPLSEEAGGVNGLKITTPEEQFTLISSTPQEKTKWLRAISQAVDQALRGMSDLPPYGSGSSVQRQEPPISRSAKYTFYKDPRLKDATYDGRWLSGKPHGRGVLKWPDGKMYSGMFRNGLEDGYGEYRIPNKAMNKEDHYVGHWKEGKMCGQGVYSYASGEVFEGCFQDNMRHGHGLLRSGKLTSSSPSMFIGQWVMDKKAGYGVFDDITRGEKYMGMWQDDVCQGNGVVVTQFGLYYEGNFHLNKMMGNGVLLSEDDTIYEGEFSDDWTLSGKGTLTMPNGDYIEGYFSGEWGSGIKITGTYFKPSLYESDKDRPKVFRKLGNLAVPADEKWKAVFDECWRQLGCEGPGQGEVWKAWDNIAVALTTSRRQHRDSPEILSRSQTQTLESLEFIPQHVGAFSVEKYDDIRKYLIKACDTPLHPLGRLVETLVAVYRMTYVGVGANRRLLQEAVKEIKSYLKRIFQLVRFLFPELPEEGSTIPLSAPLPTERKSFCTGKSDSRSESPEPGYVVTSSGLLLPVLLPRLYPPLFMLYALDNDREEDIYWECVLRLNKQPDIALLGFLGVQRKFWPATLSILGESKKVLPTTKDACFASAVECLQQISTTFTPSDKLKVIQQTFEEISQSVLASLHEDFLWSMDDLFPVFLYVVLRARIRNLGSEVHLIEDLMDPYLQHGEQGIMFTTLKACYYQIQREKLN
UniProt Q01432: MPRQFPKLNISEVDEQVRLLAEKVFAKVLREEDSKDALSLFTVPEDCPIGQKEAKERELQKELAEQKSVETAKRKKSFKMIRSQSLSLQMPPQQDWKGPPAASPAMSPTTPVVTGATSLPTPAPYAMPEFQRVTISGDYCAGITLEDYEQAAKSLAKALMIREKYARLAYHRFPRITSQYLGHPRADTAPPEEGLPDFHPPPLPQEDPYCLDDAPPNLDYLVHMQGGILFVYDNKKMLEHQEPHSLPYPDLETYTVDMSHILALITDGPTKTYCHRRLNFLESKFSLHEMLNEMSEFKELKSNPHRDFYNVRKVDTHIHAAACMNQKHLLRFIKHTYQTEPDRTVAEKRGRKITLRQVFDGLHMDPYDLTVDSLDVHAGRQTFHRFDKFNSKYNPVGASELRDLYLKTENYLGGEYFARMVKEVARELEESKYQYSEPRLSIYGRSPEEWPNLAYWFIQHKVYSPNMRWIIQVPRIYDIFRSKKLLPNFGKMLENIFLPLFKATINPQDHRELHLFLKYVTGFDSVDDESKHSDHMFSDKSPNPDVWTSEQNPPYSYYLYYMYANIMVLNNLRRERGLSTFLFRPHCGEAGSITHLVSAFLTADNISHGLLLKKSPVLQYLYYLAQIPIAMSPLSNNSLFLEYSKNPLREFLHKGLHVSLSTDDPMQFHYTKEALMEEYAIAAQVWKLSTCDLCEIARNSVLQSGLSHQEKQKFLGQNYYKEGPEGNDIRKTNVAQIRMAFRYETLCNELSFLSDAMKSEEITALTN
UniProt Q86V24: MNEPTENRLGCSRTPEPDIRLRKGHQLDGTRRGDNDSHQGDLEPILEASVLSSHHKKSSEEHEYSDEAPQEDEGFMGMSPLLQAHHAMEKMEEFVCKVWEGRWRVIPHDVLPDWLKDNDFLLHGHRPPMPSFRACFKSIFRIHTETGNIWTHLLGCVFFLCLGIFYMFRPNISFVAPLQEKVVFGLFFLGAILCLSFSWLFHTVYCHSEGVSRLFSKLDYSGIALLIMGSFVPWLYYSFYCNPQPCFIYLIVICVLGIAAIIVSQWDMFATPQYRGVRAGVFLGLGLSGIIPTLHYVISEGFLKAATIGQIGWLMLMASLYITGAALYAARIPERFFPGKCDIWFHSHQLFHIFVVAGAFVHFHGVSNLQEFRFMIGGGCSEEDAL
UniProt Q9NUQ2: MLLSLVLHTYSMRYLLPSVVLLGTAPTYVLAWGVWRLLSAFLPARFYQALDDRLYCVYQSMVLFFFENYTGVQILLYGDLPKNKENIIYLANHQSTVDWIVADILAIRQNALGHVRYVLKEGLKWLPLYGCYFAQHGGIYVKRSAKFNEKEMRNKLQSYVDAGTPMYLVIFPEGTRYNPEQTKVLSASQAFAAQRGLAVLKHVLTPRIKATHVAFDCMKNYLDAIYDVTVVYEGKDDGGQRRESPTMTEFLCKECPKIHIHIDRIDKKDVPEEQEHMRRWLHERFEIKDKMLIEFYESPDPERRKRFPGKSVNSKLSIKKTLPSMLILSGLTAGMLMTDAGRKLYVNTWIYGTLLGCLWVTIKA

Experiments:
Assay in all cases: log2 fold change, soluble protein after heating vs DMSO (PISA); higher = thermal stabilisation; K562 cells, 10 uM, 30 min; active = over 0.2 and 3.5 SD of the protein, either way, in both replicates (recomputed)
erlotinib = compound: C#Cc1cccc(Nc2ncnc3cc(OCCOC)c(OCCOC)cc23)c1 [erlotinib]
Method in brief: (§1)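 Values are thermal stability changes relative to control samples and are taken from duplicates. They are stated as log2 fold changes. Before quantification by TMTpro 16plex LC-MS/MS with equalised channel sums, K562 cells at 2×10^6 cells/mL were treated with 10 μM compound for 30 min, heated in aliquots for 3 min across 48°C-58°C, pooled, extracted in PBS with 0.5% NP-40 at 4°C, and centrifuged at 21,000xg for 90 min to give the soluble supernatant.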

[1] = compound: C/C(=N\NC(=O)C1=CC(=CC=C1)S(=O)(=O)N2CCOCC2)/C3=C(C=CC(=C3)Cl)O
Method in brief: as §1

[2] = compound: C1=CC(=C(C=C1Cl)C2=NC3=NC=CN=C3C(=N2)NC4=CC=NC=C4)F
Method in brief: as §1

[3] = compound: C1=CC(=CC=C1C2=NC3=C(N2)C=C(C=C3)C(=O)N)OC4=CC=C(C=C4)Cl
Method in brief: as §1

[4] = compound: C1=CC2=C(C=CC(=C2)/C=C\3/C(=O)NC(=NCC4=CC=CS4)S3)N=C1
Method in brief: as §1

[5] = compound: C1=CC2=NC=CN=C2C=C1/C=C/3\C(=O)NC(=O)S3
Method in brief: as §1

[6] = compound: C1=CC=C(C=C1)C2=NC(=C(N2)C3=CC=NC=C3)C4=CC(=C(C=C4)Cl)O
Method in brief: as §1

[7] = compound: C1=CC=C2C(=C1)C3=NNC4=CC=CC(=C43)C2=O
Method in brief: as §1

[8] = compound: C1CCN(C1)C(=O)NC2=CC=CC(=C2)NC3=NC=C(C(=N3)NCCC4=CN=CN4)Br
Method in brief: as §1

[9] = compound: C1CN(CCC1(CC2=CC=C(C=C2)Cl)N)C3=NC=NC4=C3C=CN4
Method in brief: as §1

| Target | log2 fold change (erlotinib) | log2 fold change [1] | log2 fold change [2] | log2 fold change [3] | log2 fold change [4] | log2 fold change [5] | log2 fold change [6] | log2 fold change [7] | log2 fold change [8] | log2 fold change [9] |
| --- | --- | --- | --- | --- | --- | --- | --- | --- | --- | --- |
| ALG10B (UniProt Q5I7T1) | inactive: -0.001 | inactive: 0.055 | inactive: 0.021 | inactive: -0.033 | inactive: 0.083 | inactive: 0.05 | inactive: 0.063 | inactive: -0.035 | inactive: -0.014 | inactive: 0.042 |
| ADGRE2 (UniProt Q9UHX3) | inactive: -0.027 | inactive: 0.014 | inactive: 0.017 | inactive: 0.068 | inactive: -0.115 | inactive: 0.039 | inactive: 0.203 | inactive: -0.034 | inactive: 0.003 | inactive: 0.068 |
| AGAP3 isoform 4 (UniProt Q96P47) | inactive: 0.11 | inactive: 0 | inactive: -0.078 | inactive: -0.062 | inactive: 0.017 | inactive: 0.183 | inactive: -0.024 | inactive: -0.082 | inactive: -0.075 | inactive: 0.127 |
| AGO2 (UniProt Q9UKV8) | inactive: -0.027 | inactive: -0.037 | inactive: -0.21 | inactive: 0.016 | inactive: -0.009 | inactive: 0.037 | inactive: -0.033 | inactive: -0.111 | inactive: 0.012 | inactive: -0.011 |
| ADPRM (UniProt Q3LIE5) | inactive: -0.015 |  |  | inactive: 0.011 |  | inactive: 0.054 |  |  |  |  |
| AKIRIN2 (UniProt Q53H80) | inactive: -0.048 | inactive: 0.2 | inactive: -0.362 | inactive: 0.017 | inactive: 0.133 |  | inactive: 0.017 | inactive: -0.018 | inactive: -0.213 | inactive: -0.141 |
| ADPRH (UniProt P54922) | inactive: -0.021 |  | inactive: -0.047 | inactive: -0.047 |  | inactive: 0.008 | inactive: -0.011 |  | inactive: 0.141 | inactive: -0.065 |
| ALG12 (UniProt Q9BV10) | inactive: -0.071 | inactive: -0.051 | inactive: 0.04 | inactive: 0.018 | inactive: -0.018 | inactive: 0.128 |  | inactive: 0.1 | inactive: 0 | inactive: 0.127 |
| AFF4 (UniProt Q9UHB7) | inactive: -0.124 | inactive: 0.213 | inactive: -0.158 | inactive: 0.078 | inactive: -0.037 | inactive: -0.028 |  | inactive: -0.028 |  |  |
| AEBP2 (UniProt Q6ZN18) | inactive: 0.305 |  | inactive: 0.072 | inactive: -0.322 |  | inactive: 0.092 |  |  |  |  |
| ALDH16A1 (UniProt Q8IZ83) | inactive: 0.024 | inactive: 0 | inactive: 0.011 | inactive: 0.027 | inactive: 0.025 | inactive: -0.018 | inactive: -0.02 | inactive: -0.002 | inactive: -0.008 | inactive: 0.021 |
| ADCK5 (UniProt Q3MIX3) | inactive: -0.122 |  | inactive: 0.047 | inactive: 0.037 |  |  | inactive: -0.088 |  | inactive: -0.038 | inactive: -0.101 |
| AMN1 (UniProt Q8IY45) | inactive: 0.107 | inactive: -0.006 | inactive: -0.029 | inactive: -0.252 | inactive: 0.044 | inactive: 0.072 |  | inactive: 0.094 | inactive: 0.156 | inactive: -0.098 |
| AKNA (UniProt Q7Z591) | inactive: -0.147 |  |  | inactive: 0.195 |  |  |  |  |  |  |
| ADIPOR1 (UniProt Q96A54) | inactive: 0.093 |  | inactive: -0.086 | inactive: -0.1 |  | inactive: 0.051 | inactive: 0.081 |  |  |  |
| AMMECR1 (UniProt Q9Y4X0) | inactive: -0.051 | inactive: -0.144 | inactive: -0.006 | inactive: 0.146 | inactive: -0.021 |  | inactive: 0.324 | inactive: 0.015 |  |  |
| AHCYL2 (UniProt Q96HN2) | inactive: 0.035 | inactive: -0.02 | inactive: 0.078 | inactive: -0.018 | inactive: 0.013 | inactive: 0.032 | inactive: -0.013 | inactive: 0.048 | inactive: 0.019 | inactive: 0.038 |
| ADSL (UniProt P30566) | inactive: -0.028 | inactive: -0.007 | inactive: 0.06 | inactive: 0.018 | inactive: -0.002 | inactive: 0.029 | inactive: 0.007 | inactive: -0.003 | inactive: -0.013 | inactive: 0.031 |

| Target | log2 fold change (erlotinib) | log2 fold change [1] | log2 fold change [2] | log2 fold change [3] | log2 fold change [4] | log2 fold change [5] | log2 fold change [6] | log2 fold change [7] | log2 fold change [8] | log2 fold change [9] |
| --- | --- | --- | --- | --- | --- | --- | --- | --- | --- | --- |
| AGA (UniProt P20933) | inactive: -0.04 |  |  | inactive: 0.1 |  | inactive: 0.028 |  |  |  |  |
| AKR1C3 (UniProt P42330) | inactive: 0.063 | inactive: 0.067 | inactive: 0.117 | inactive: -0.095 | inactive: 0.02 | inactive: 0.067 | active: 0.796 | inactive: -0.022 | inactive: 0.031 | inactive: 0.044 |
| ALDH3A2 isoform 2 (UniProt P51648) | inactive: 0.028 |  |  | inactive: 0.059 |  | inactive: 0.019 |  |  |  |  |
| ALDOA (UniProt P04075) | inactive: 0.088 | inactive: -0.096 |  | inactive: 0.096 | inactive: 0.069 | inactive: 0.152 | inactive: -0.203 | inactive: -0.094 | inactive: -0.047 | inactive: 0.093 |
| ALAS1 (UniProt P13196) | inactive: -0.107 | inactive: -0.211 | inactive: 0.072 | inactive: -0.024 | inactive: 0.334 | inactive: -0.029 |  | inactive: 0.382 |  |  |
| ANAPC11 (UniProt Q9NYG5) | inactive: -0.066 |  |  | inactive: 0.047 |  | inactive: -0.053 |  |  |  |  |
| ALG6 (UniProt Q9Y672) | inactive: -0.006 | inactive: 0.004 | inactive: -0.011 | inactive: 0.06 | inactive: 0.07 | inactive: 0.016 |  | inactive: -0.07 | inactive: -0.052 | inactive: 0.175 |
| ANAPC1 (UniProt Q9H1A4) | inactive: -0.058 | inactive: -0.025 | inactive: -0.023 | inactive: 0.008 | inactive: 0.011 | inactive: 0.025 | inactive: 0.007 | inactive: -0.01 | inactive: 0.008 | inactive: -0.018 |
| AFF1 isoform 2 (UniProt P51825) | inactive: -0.048 | inactive: 0.13 | inactive: 0.001 | inactive: -0.042 | inactive: -0.001 | inactive: -0.156 |  | inactive: 0.127 |  |  |
| ADCY3 (UniProt O60266) | inactive: 0.13 | inactive: 0.126 |  | inactive: 0.052 | inactive: 0.244 |  | inactive: -0.037 | inactive: 0.058 | inactive: -0.018 | inactive: 0.119 |
| AMBP (UniProt P02760) | inactive: -0.23 |  |  | inactive: -0.047 |  | inactive: -0.053 |  |  |  |  |
| ALS2 (UniProt Q96Q42) | inactive: 0.02 |  | inactive: 0.05 | inactive: -0.162 |  |  | inactive: -0.206 |  | inactive: 0.021 | inactive: 0.007 |
| AMPD3 isoform 4 (UniProt Q01432) | inactive: 0.062 | inactive: 0.03 | inactive: 0.056 | inactive: -0.005 | inactive: -0.037 | inactive: 0.035 | inactive: 0.008 | inactive: -0.028 | inactive: 0.027 | inactive: 0.034 |
| ANAPC15 isoform 2 (UniProt P60006) | inactive: -0.229 | inactive: -0.117 |  | inactive: -0.174 | inactive: 0.002 |  |  | inactive: 0.006 | inactive: 0.045 | inactive: 0.044 |
| ADIPOR2 (UniProt Q86V24) | inactive: 0.107 | inactive: 0.063 |  | inactive: 0.049 | inactive: 0.076 | inactive: 0.045 |  | inactive: -0.161 | inactive: 0 | inactive: 0.004 |
| AGGF1 (UniProt Q8N302) | inactive: 0.33 |  |  | inactive: -0.196 |  | inactive: -0.066 |  |  |  |  |
| AGPAT5 (UniProt Q9NUQ2) | inactive: 0.042 | inactive: -0.019 | inactive: -0.003 | inactive: 0.014 | inactive: 0.009 | inactive: 0.048 | inactive: 0.07 | inactive: -0.001 | inactive: -0.017 | inactive: 0.079 |
| ALMS1 (UniProt Q8TCU4) | inactive: 0.505 |  |  | inactive: -0.001 |  | inactive: 0.003 |  |  |  |  |

Pulled one by one from the entries so far, 2 records:

| Target | log2 fold change (erlotinib) | log2 fold change [1] | log2 fold change [2] | log2 fold change [3] | log2 fold change [4] | log2 fold change [5] | log2 fold change [6] | log2 fold change [7] | log2 fold change [8] | log2 fold change [9] |
| --- | --- | --- | --- | --- | --- | --- | --- | --- | --- | --- |
| ADGRE2 (UniProt Q9UHX3) | inactive: -0.027 | inactive: 0.014 | inactive: 0.017 | inactive: 0.068 | inactive: -0.115 | inactive: 0.039 | inactive: 0.203 | inactive: -0.034 | inactive: 0.003 | inactive: 0.068 |
| AGPAT5 (UniProt Q9NUQ2) | inactive: 0.042 | inactive: -0.019 | inactive: -0.003 | inactive: 0.014 | inactive: 0.009 | inactive: 0.048 | inactive: 0.07 | inactive: -0.001 | inactive: -0.017 | inactive: 0.079 |
